In PubChem BioAssay AID1347076 (National Center for Advancing Translational Sciences (NCATS), 2019):
The whole screen tested about 400,000 compounds, of which about 13,000 (3.2%) were called active. The inconclusive results got no clear call from the source; some entries with a clear call stand among them for comparison. The call rests on the fitted dose curve; in most records, active means well fitted cell-killing curve with a large enough effect; inconclusive means small, poorly fitted or top-dose-only effect, or effect the other way; inactive means flat fitted curve, though single readings scatter. Potencies of inconclusive entries are doubtful fits and often do not repeat.

Assay: qHTS assay for MDR1-selective chemotherapeutics: Primary screen using the drug-selected MDR subline cells KB-V1; further: nearly all actives have a fitted effect of over 60% in size
Settings: KB-V1 MDR cells viability, CellTiter-Glo, 72 h; activity change, negative = cytotoxicity: at 46.1 µM (top of the series)
In short: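 Readout: CellTiter-Glo luminescence, 10 min after addition. Cells: KB-V1 MDR subline, 72 h at 37 degrees C with compound. Analysis: corrected, normalized data fitted to concentration-effect curves.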
On the % scale 0 is the no-effect control and ±100 the full control effect; potency means the concentration at half of the fitted maximal effect.

| Structure (SMILES) | Potency | activity change, negative = cytotoxicity |
| --- | --- | --- |
| COc1ccc(C2CC(c3cccs3)=NN2C(=O)CSc2nncs2)cc1OC (stereo not drawn) | inconclusive: 29.1 µM [cytotoxic, partial curve, poor fit] |  |
| Cc1ccc(C(=O)Nc2ccc(S(=O)(=O)N3CCCC3)cc2)cc1 |  | inconclusive: -33.1% [cytotoxic] |
| CCOc1ccccc1NC(=O)c1ccc(S(=O)(=O)N2CCCCC2)cc1 |  | inactive: 3.37% |
| CSc1nnc(NC(=O)c2ccc(S(=O)(=O)N3CCOCC3)cc2)s1 |  | inactive: 0% |
| Cc1ccccc1N1CCN(C(=O)c2ccc(Oc3ccc(C(F)(F)F)cn3)cc2)CC1 |  | inactive: 0% |
| COc1ccc(OC)c(-n2nnnc2SCC(=O)NCc2ccc3c(c2)OCO3)c1 | inconclusive: 18.4 µM [cytotoxic, partial curve] |  |
| Cc1ccc(C(=O)O/N=C\c2ccc(N3CCCCC3)c([N+](=O)[O-])c2)cc1 | active: 7.31 µM |  |
| COc1ccc(Cl)cc1-c1n[nH]c(=S)n1C1CCCCC1 |  | inactive: -20.9% |
| Cc1oc(-c2ccc(Cl)cc2)nc1CS(=O)CC(=O)NCc1ccccn1 (stereo not drawn) | inconclusive: 0.0731 µM [rising, full curve, poor fit] |  |
| CN(C)c1ccc(/C=C/c2c(F)cnc3ccccc23)cc1 | inconclusive: 16.4 µM [cytotoxic, single point] |  |
| O=C1CSC2(C(=O)N(Cc3cccc(F)c3)c3ccccc32)N1c1cccc(C(F)(F)F)c1 (stereo not drawn) | active: 13 µM |  |
| Cc1nc(NC(=O)CSc2nnc(-c3ccccc3)c(-c3ccccc3)n2)c(Cl)cc1Cl | inconclusive: 11.6 µM [cytotoxic, partial curve] |  |
| CCOC(=O)c1cc(CC)sc1NC(=O)COC | inconclusive: 29.1 µM [cytotoxic, single point] |  |
| CN1C(=O)[C@@](O)(CC(=O)c2ccccc2)c2cc(Br)ccc21 |  | inactive: -1.51% |
| COc1cccc(CN2c3ccccc3-c3nc(SCC(=O)Nc4ccccc4Cl)ncc3S2(=O)=O)c1 | inconclusive: 0.0082 µM [cytotoxic, full curve, poor fit] |  |
| COc1ccc(NC(=S)N/N=C2\CC(C)(C)Oc3ccc(O)cc32)cc1 |  | inactive: -13.1% |
| CSc1nc2n(n1)C(c1cc(Br)ccc1F)C(C(=O)N(C)C)=C(C)N2 (stereo not drawn) |  | inconclusive: 30.3% |
| COc1ccccc1C(=O)Nc1ccc(N2CCCCC2)cc1 | active: 20.6 µM |  |
| CCOc1cc(C)c(C(C)C)cc1S(=O)(=O)N1CC(C)OC(C)C1 (stereo not drawn) | inconclusive: 16.4 µM [cytotoxic, partial curve] |  |
| CCN(CC)CCNC(=O)c1cc2c(=O)n(C)c3cc(Cl)ccc3c2s1 |  | inconclusive: 0.552% |
| O=C1C(Nc2ccccc2)=C/C(=N/S(=O)(=O)c2cccs2)c2ccccc21 | inconclusive: 20.6 µM [cytotoxic, single point] |  |
| Cc1ccc(Cn2c(CO)cnc2SCC(=O)Nc2ccc(C)c(Cl)c2)cc1 |  | inactive: 12% |
| COc1ccc2c(c1)sc(N)[n+]2Cc1cc(C)cc2cccnc12 | active: 4.61 µM |  |
| CCOC(=O)c1ccc(S(=O)(=O)N2CCC(C(=O)N3CCN(c4ccccc4OC)CC3)CC2)cc1 | inconclusive: 13 µM [cytotoxic, partial curve] |  |
| CCC(=O)Nc1nc2ccccc2n1Cc1ccc(Cl)cc1 | inconclusive: 4.61 µM [cytotoxic, full curve] |  |

| Structure (SMILES) | Potency | activity change, negative = cytotoxicity |
| --- | --- | --- |
| CCOC(=O)C1=C(N)N(c2ccccc2)C2=C(C(=O)CCC2)C1c1cccnc1 (stereo not drawn) |  | inactive: -14.3% |
| CCOc1ccc(S(=O)(=O)N(CC)CC(=O)NCc2ccco2)cc1C | inconclusive: 8.2 µM [cytotoxic, partial curve] |  |
| Cc1ccc(C)c(Sc2ccc(NC(=O)CCl)cc2)c1 | inconclusive: 29.1 µM [cytotoxic, single point] |  |
| CCN(CC)S(=O)(=O)c1cccc(C(=O)NNC(=O)c2ccc3[nH]c(=O)c(=O)[nH]c3c2)c1 |  | inactive: -2.53% |
| COc1ccc([N+](=O)[O-])cc1NC(=O)COC(=O)C12CC3CC(CC(O)(C3)C1)C2 |  | inactive: 3.19% |
| O=C(/C=C/c1c[nH]c2ccccc12)c1cccc2ccccc12 | inconclusive: 18.4 µM [cytotoxic, single point] |  |
| CCCc1nnc(NC(=O)CSc2ncn[nH]2)s1 |  | inconclusive: 50.1% |
| Nc1ccccc1SCC(=O)Nc1nc(-c2ccccc2)cs1 | inconclusive: 25.9 µM [cytotoxic, single point] |  |
| N#CCCN(Cc1ccccc1)C(c1ccnc2ccccc12)c1nnnn1-c1ccc2c(c1)OCCO2 (stereo not drawn) | inconclusive: 16.4 µM [cytotoxic, partial curve] |  |
| COc1cccc(OCc2nc3ccccc3c(=O)n2N)c1 | inconclusive: 29.1 µM [cytotoxic, single point] |  |
| O=C(NCc1ccco1)C(=O)c1cn(CC(=O)N2CCCCCC2)c2ccccc12 | inconclusive: 23.1 µM [cytotoxic, partial curve, poor fit] |  |
| CN1C(=O)c2ccccc2Sc2ccc(NC(=O)c3ccc(C(F)(F)F)cc3)cc21 |  | inactive: -14.8% |
| COc1ccc(Cl)cc1C(Nc1cccnc1)c1ccc2cccnc2c1O (stereo not drawn) | inconclusive: 5.8 µM [cytotoxic, partial curve] |  |
| COC(=O)c1ccc2nc(-c3ccccc3)c(Cc3ccc(OC)cc3C)n2c1 | active: 23.1 µM |  |
| Cc1ccc(S(=O)(=O)N2CCC(C(=O)N3CCc4ccccc43)CC2)cc1 | inconclusive: 16.4 µM [cytotoxic, single point] |  |
| CCc1cccc2c(C(=O)C(F)(F)F)cn(CC(=O)N3CCOCC3)c12 |  | inactive: -11.3% |
| COC1=CC(=O)CC(C)C12Oc1c(Cl)c(OC)cc(OC)c1C2=O (stereo not drawn) | inconclusive: 16.4 µM [cytotoxic, single point] |  |
| Cc1cc(OCC(=O)Nn2cnnc2)c(C)cc1Br | inconclusive: 18.4 µM [rising, partial curve] |  |
| N#Cc1ccccc1NS(=O)(=O)c1ccc(N2CCCCS2(=O)=O)cc1 |  | inactive: 27.3% |
| O=C(c1cccs1)N1CCN(c2nc3ccccc3s2)CC1 |  | inactive: -9.13% |
| O=C(NCCc1ccccc1)C(=O)NCC1CCCN1S(=O)(=O)c1ccccc1 (stereo not drawn) | active: 11.6 µM |  |
| CSCC[C@H](CO)NC(=O)[C@H]1O[C@@H](n2cnc3c(N)ncnc32)[C@H](O)[C@@H]1O |  | inactive: 14.5% |
| CCCCN(CC)C(=O)C1CCCN(S(=O)(=O)c2cccc3nsnc23)C1 (stereo not drawn) | inconclusive: 1.16 µM [rising, full curve] |  |
| O=C(N/N=C\c1ccc(-c2ccc([N+](=O)[O-])cc2)o1)C1COc2ccccc2O1 (stereo not drawn) | inconclusive: 20.6 µM [cytotoxic, single point] |  |
| Cc1ccc(CN(C)C(=O)COC(=O)CSc2cc(C)c3ccccc3n2)cc1 | inconclusive: 3.26 µM [rising, partial curve, poor fit] |  |

| Structure (SMILES) | Potency | activity change, negative = cytotoxicity |
| --- | --- | --- |
| CN(c1ccc(C(=O)NC2CCCCC2)cc1)S(=O)(=O)c1ccccc1 | inconclusive: 3.26 µM [cytotoxic, partial curve, poor fit] |  |
| COc1ccc(-c2ccc3[nH]c4c(c3c2)CCN2C(=O)[C@@H]([C@H](C)O)[C@@H](N(C)C(=O)Nc3ccc(F)cc3)C[C@@H]42)cc1 | active: 16.4 µM |  |
| Nc1ccc(S(=O)(=O)C(F)(F)F)cc1N | inconclusive: 23.1 µM [rising, single point] |  |
| COc1ccc(C(=O)NCCNc2nc3c(C)cccc3cc2C#N)cc1 |  | inactive: -8.91% |
| O=C(NCc1ccc(Cl)cc1)C1CCCO1 (stereo not drawn) | inconclusive: 25.9 µM [rising, single point] |  |
| CCOc1ccccc1NC(=O)c1ccc2c(c1)C(=O)N(CC)C2=O |  | inactive: -7.3% |
| CCC1CCCCN1c1nc2c(C=O)c(C)nn2c2ccccc12 (stereo not drawn) |  | inactive: 0% |
| Cc1ccc(OCC(=O)N2CCCc3ccccc32)cc1 | inconclusive: 0.461 µM [cytotoxic, full curve] |  |
| Cc1nc([N+](=O)[O-])c(Sc2nc3ccccc3[nH]2)n1Cc1ccccc1 |  | inactive: -3.35% |
| CSc1cccc(NC(=S)N2CCCN(Cc3cccc(Cl)c3)C2)c1 | inconclusive: 29.1 µM [cytotoxic, single point] |  |
| CN(Cc1ccc(Cl)cc1Cl)C(=O)CCNC(=O)c1ccco1 |  | inactive: -10.6% |
| CCCn1c(N)c(N(CCOC)C(=O)/C=C/c2cccc(Cl)c2)c(=O)[nH]c1=O | inconclusive: 29.1 µM [rising, single point] |  |
| CC(C)Oc1cccc(C(=O)C2CCCN(Cc3ccc4nonc4c3)C2)c1 (stereo not drawn) | inconclusive: 23.1 µM [cytotoxic, single point] |  |
| Cc1occc1C(=O)N1CCN(c2ccccc2)CC1 | inconclusive: 13 µM [cytotoxic, partial curve, poor fit] |  |
| COc1cc2[nH]c(=O)n(CCC(=O)N3CCN(c4cccc(C)c4C)CC3)c(=O)c2cc1OC |  | inactive: 2.13% |
| COc1cc(SC)ccc1C(=O)NCCc1ccccc1 |  | inactive: -7.73% |
| COc1cc(N=c2ssnc2Cl)cc(OC)c1OC |  | inactive: 20.4% |
| Cn1c(N)c(C(=O)COC(=O)[C@H](Cc2ccccc2)N2C(=O)c3ccccc3C2=O)c(=O)n(C)c1=O | inconclusive: 11.6 µM [cytotoxic, partial curve] |  |
| CCOC(=O)c1c(-c2ccc(C)cc2)csc1NC(=O)CCN1CC(C)OC(C)C1 (stereo not drawn) | inconclusive: 10.3 µM [cytotoxic, single point] |  |
| CC(=O)NNC(=O)c1[nH]c2ccc(Cl)cc2c1-c1ccccc1 | inconclusive: 23.1 µM [cytotoxic, partial curve, poor fit] |  |
| Cc1cccc(-n2c(C)cc(/C=C3/C(=N)N4C(c5ccccc5)=CSC4=NC3=O)c2C)c1 |  | inactive: 8.6% |
| Cc1cc(C)c2nc(Cl)c(CN(Cc3ccco3)C(=O)Nc3ccccc3C)cc2c1 |  | inactive: 0% |
| COc1ccc(C(=O)CC(=O)c2ccccc2O)cc1OC | inconclusive: 20.6 µM [cytotoxic, partial curve] |  |

Sorted by heavy-atom count (low to high): 3 of the compounds above.

| Structure (SMILES) | Potency | activity change, negative = cytotoxicity |
| --- | --- | --- |
| CN(Cc1ccc(Cl)cc1Cl)C(=O)CCNC(=O)c1ccco1 |  | inactive: -10.6% |
| Cc1nc([N+](=O)[O-])c(Sc2nc3ccccc3[nH]2)n1Cc1ccccc1 |  | inactive: -3.35% |
| COc1ccc(C(=O)NCCNc2nc3c(C)cccc3cc2C#N)cc1 |  | inactive: -8.91% |
